Screening data, single-dose tests

Sequences of proteins named here, by UniProt entry; tags and fusion partners are left off.
UniProt P9WPC5, whole entry: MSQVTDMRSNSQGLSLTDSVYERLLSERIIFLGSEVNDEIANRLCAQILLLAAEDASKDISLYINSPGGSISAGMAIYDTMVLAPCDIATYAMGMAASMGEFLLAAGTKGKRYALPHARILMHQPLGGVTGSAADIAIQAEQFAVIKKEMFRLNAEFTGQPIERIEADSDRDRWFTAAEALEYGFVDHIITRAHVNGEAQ
UniProt P9WPC3, whole entry partner: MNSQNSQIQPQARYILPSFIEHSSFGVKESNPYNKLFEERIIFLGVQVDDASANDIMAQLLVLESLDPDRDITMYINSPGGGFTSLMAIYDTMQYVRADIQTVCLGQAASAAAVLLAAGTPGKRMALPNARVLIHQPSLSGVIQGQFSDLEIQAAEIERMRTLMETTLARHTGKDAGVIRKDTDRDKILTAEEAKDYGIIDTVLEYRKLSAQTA

Values are the deposited “Percent Effect”, in %. The record does not define 0% and 100%; most values in the screen are far below 50% and negative numbers occur (in some assays of this library far below -100). This is an unselected part of the compounds tested. Two or more numbers in one place are separate tests of the same structure; such repeats can differ widely. A dash means the value is not listed here; it may have been measured.

Toxoplasma: 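Assay of Toxoplasma gondii numbers, read through their beta-galactosidase reporter with a colour substrate. Concentration: 10 µM. Higher reads as fewer parasites (inferred from which compounds were picked for retests). Size under these conditions: about 67,000 compounds, about 260 of them at 50% or above in at least one test.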
ClpP1P2: 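ClpP1P2, Mycobacterium tuberculosis (UniProt P9WPC5 and UniProt P9WPC3). Protease assay of ClpP1P2, read by the AMC dye that it sets free. Tested at 50 µM. Higher reads as stronger inhibition, judged from the few compounds that gave an IC50. Most other retested compounds had strongly negative values. Size under these conditions: about 69,000 compounds, about 10 of them at 50% or above in at least one test.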
Leishmania in macrophages: 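Cell assay of Leishmania donovani living inside macrophages; the read-out is not stated. Tested at 30 µM. Direction is inferred from retests: higher values go with stronger inhibition. Of about 69,000 compounds tested this way, about 1,000 (1.5%) reached 50% or more in at least one test.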
T. brucei: 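Whole-parasite assay of Trypanosoma brucei over 72 hours; the read-out is not stated. Compounds at 30 µM. Higher reads as stronger inhibition (inferred: compounds with an IC50 in retests scored well above the rest). Values scatter widely below zero; nearly all retest evidence comes from the higher of the two concentrations used. Of about 64,000 compounds tested this way, about 940 (1.5%) reached 50% or more in at least one test.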

structure	Toxoplasma	ClpP1P2	Leishmania in macrophages	T. brucei
CC1CN(Cc2nc(Cc3ccccc3F)no2)CCN1C (stereo not given)	3.762%	-14.94%	15.36%	-4.427%
COc1ccc(C(C)NCc2cscn2)cc1Cn1cccn1 (stereo not given)	-3.371%	10.31%	7.9%	-33.08%
CC1COCCN1C(=O)COc1cccc(Oc2ccccn2)c1 (stereo not given)	-	-1.453%	-7.593%	-2.425%
[H][C@]12CC[C@]([H])(CN(S(C)(=O)=O)C1)N(Cc1ccsc1)C2	-11.82%	-	2.214%	-69.04%
Cc1csc(C(=O)N2CCC(O)(CN3CCc4ccccc4C3)C2)c1 (stereo not given)	8.187%	-10.56%	5.407% & -9.543%	-5.352%
CCn1ccnc1CNCC1CCCN1c1cccnn1 (stereo not given)	-3.571%	-7.346%	7.452%	1.024%
CCC(=O)Nc1ccc2c(c1)C1(CCOCC1)CN2CCOC.O=C(O)C(F)(F)F	-31.89%	-	42.97%	-49.74%
O=C(Cn1ncc2c(c1=O)CCCCC2)Nc1cccc2[nH]ccc12	9.465%	0.6349%	17.72%	1.729%
COc1cccc(Cl)c1-c1cc(CN)ccc1F	9.626%	-9.408%	4.814%	-1.749%
[H][C@]12CCN(Cc3ccco3)[C@@]1([H])CC[C@H](COCc1ccccn1)O2	5.909%	-	33.01%	-34.17%
O=C(O)C(F)(F)F.[H][C@@]12CCN(C(=O)N3CCCC3)C[C@]1(COc1ncccc1F)CCO2	-13.58%	-	-17.2%	-46.9%
Cc1nc(C)n(CC2CN(c3ccc(C#N)cn3)CCO2)n1 (stereo not given)	-4.959%	-1.324%	7.983%	22.46%
O=C(C1CCC2(CCN(CC3CC3)CC2)O1)N1CCCC1.O=C(O)C(F)(F)F (stereo not given)	0.3293%	-	-2.626%	-21.94%
O=C(NC1CCC1)[C@H]1C[C@@H]2CN(S(=O)(=O)c3ccccc3)C[C@H]1O2	-	-6.385%	-	-
Cc1cccc(C(=O)N2CCN(CCC(C)C)CC2)n1	4.693%	-6.445%	5.375%	-20.29%
CC(C)c1nnc2n1CC(CNc1cnc3ccccc3n1)CC2 (stereo not given)	-4.94%	-38.34%	1.844%	-26.53%
O=C(CN1CCOC(Cn2cccn2)C1)NCc1ccco1 (stereo not given)	-1.21%	-21.14%	30.39%	-
Cc1ncc(C(=O)N2CCCC(C(=O)CCc3ccccc3)C2)s1 (stereo not given)	19.5%	8.757%	-61.92%	-78.92%
CN(C)S(=O)(=O)N1CCCC(c2cccc(Cc3ccc(F)cc3)n2)C1 (stereo not given)	0.08618%	-7.755%	-10.19% & -14.02%	41.5%
COc1cc(-c2cccc3c2OC(CN)C3)cc(OC)c1OC (stereo not given)	-12.66%	-9.494%	39.45%	-67.41%
Cc1cc(CNC(=O)c2cc(C(C)C)n(C)n2)ccc1S(C)(=O)=O	-1.429%	-8.102%	-7.283%	3.633%
COc1ccc(-c2cnc(CN3CCn4c(C)nnc4C3)o2)cc1	-27.66%	5.217%	-2.648%	-13.51%
CC1(C(=O)N2CCOCC2)CN(Cc2ccccc2F)CCO1 (stereo not given)	-0.6101%	4.663%	-1.174%	-15.62%
COc1cc2c(cc1CNC(=O)Cc1cc(C)[nH]n1)OC(C)C2 (stereo not given)	-3.523%	2.5%	-2.579%	5.558%
O=C(CN1CCc2cncnc2C1)NCCOc1ccccc1	-1.193%	1.519%	11.39%	-5.132%
CC(C)Cc1nc(OCC(N)=O)c(C#N)c2c1CCC2	1.654%	13.35%	6.002%	-8.135%
CN1CCCC[C@@H]2[C@H]1[C@@H](c1ccccc1)CCN2C(=O)c1ccccn1	-	1.175%	-	-
Cc1nccn1C1CCCN(C(=O)c2sccc2-n2cnnn2)C1 (stereo not given)	-34.04%	-5.645%	13.35%	-8.008%
Cc1ncsc1CN1CC[C@H]2OCC[C@@]2(C(=O)N2CCCC2)C1	-	1.044%	-	-
CC(C)c1nc(CN(C)Cc2ncccc2C(=O)O)cs1	-25.18%	-9.146%	9.941%	-56.35%
O=C(Nc1ccccn1)c1cncc(C2CCNCC2)n1	-	9.682%	-	-
O=C(O)C(F)(F)F.O=C(O)C(F)(F)F.[H][C@@]12OCCN(Cc3ccsc3)[C@@]1([H])CC[C@H]2OCc1ccccn1	-3.393%	-	27.54%	8.011%
CCN1CCN2CCCN(S(=O)(=O)c3cccc(F)c3)C2C1=O (stereo not given)	16.51%	0.1646%	7.353%	65.65%
Cc1nn2c(-c3snnc3C)nnc2s1	9.41%	6.409%	93.73%	-55.36%
COC(=O)CN(C)C1CCc2ccccc21 (stereo not given)	-18.07%	3.666%	21.97%	-11.37%
[H][C@]12CCN(C(=O)CC(C)C)CC[C@@]1([H])S(=O)(=O)N(CC(=O)N(C)C)C2	3.16%	-	-2.722% & -8.017%	-26.67%
O=C1COC2(CCN(Cc3ccccn3)CC2)CN1CC1CC1	-0.2217%	-28.55%	-9.591%	-15.41%
Cc1ncsc1C(=O)N1CCCC(c2nccn2Cc2cscn2)C1 (stereo not given)	-2.758%	-11.52%	-0.001157%	-18.56%
COc1ccccc1OCc1cc(C(=O)N2CCN(C(C)=O)CC2)n[nH]1	0.1888%	-7.749%	3.635%	-10.23%
Cc1cnc(N2C[C@@H]3[C@@H](C2)OCC(=O)N3C)nc1	-	-8.142%	-	-
CSCC(=O)NS(=O)(=O)c1ccc2c(c1)OCCO2	-11.74%	-6.017%	21.32%	3.264%
CN(C)S(=O)(=O)Nc1ccc(-n2nccc2C(F)(F)F)cc1	2.462%	-1.46%	-1.92%	-48.94%
[H][C@]12CC[C@]([H])(CN(Cc3[nH]cnc3C)C1)N(CCCSC)C2	-11.06%	-	22.54%	-
CCOC1COC2(CCN(c3cccc(C)n3)CC2)C1 (stereo not given)	-	-1.671%	-	-
CCn1nc(C)c(CN(Cc2ccccn2)Cc2ccccc2Cl)c1C	-3.516%	-48.05%	38.26%	48.27%
CN(C)C(=O)COC1COC2(CCN(c3cnccn3)CC2)C1.O=C(O)C(F)(F)F (stereo not given)	22.74%	-	16.08% & 21.44%	-16.03%
CCN(CC(=O)NC)C(=O)c1csc(Cc2ccccc2)n1	3.058%	4.471%	11.47%	-40.92%
CC(C)(C)c1ncc(C(=O)NCCNc2ncccn2)s1	6.636%	-38.42%	25.39%	-11.89%
O=C(O)C(F)(F)F.[H][C@@]12CCCO[C@]1([H])[C@H](N(C)Cc1ccco1)CN(C(=O)C1CCOCC1)C2	-3.402%	-	28.15%	-13.68%
Cc1cc(C)n(Cc2ccc(-c3noc(C(=O)NCCCO)n3)cc2)n1	-0.5607%	-2.205%	8.024%	-6.21%
COc1cc(C(C)=O)ccc1SCC(=O)Nc1ccccn1	-6.05%	-1.93%	-8.971%	-17.68%
O=C(CC1CCCN1S(=O)(=O)N1CCCCC1)c1cccs1 (stereo not given)	-14.61%	-9.51%	26.81%	-28.63%
CCN1CCN(C(=O)COCc2cccc(OC)c2)CC1	-4.093%	-20.08%	30.84%	9.759%
[H][C@@]12C[C@@H](O)CN1C[C@H](Cc1ccccc1)N(Cc1ccsc1)C2	-10.05%	-	25.42%	4.484%
COCCN1C[C@@H](C)[C@@]2(COCCN(C(=O)Cc3ccccc3)C2)C1	-	11%	-	-

3 of the entries, repeated:

structure	Toxoplasma	ClpP1P2	Leishmania in macrophages	T. brucei
Cc1cc(CNC(=O)c2cc(C(C)C)n(C)n2)ccc1S(C)(=O)=O	-1.429%	-8.102%	-7.283%	3.633%
[H][C@]12CCN(Cc3ccco3)[C@@]1([H])CC[C@H](COCc1ccccn1)O2	5.909%	-	33.01%	-34.17%
Cc1ncsc1C(=O)N1CCCC(c2nccn2Cc2cscn2)C1 (stereo not given)	-2.758%	-11.52%	-0.001157%	-18.56%

Data taken from ChEMBL document CHEMBL3988442, “University of Dundee, Small-Polar-MMV Screening Library” (2021).